Several values for one entry are separate records, joined by “and”; a condition that tells them apart may be missing. Identical values can stand only once. Further values from the same series stand in other lists.
Test system: U2OS cells
Assay: Cell growth assay (IncuCyte confluence over 72 h)
Type: cell-based
Parameters: key: % of well area covered by cells (confluence)
Conditions: listed as AN1
Experimental: Cell growth assay: Cell confluence (phase) from RPE1 (hTERT RPE-1, ATCC CLR_4000) or U2OS (ATCC, HTB-96) cell lines were monitored over time with the IncuCyte S3 (Sartiorius, Germany) in 384-well plates in 50 ul DMEM media, supplemented with 10% Fetal Bovine Serum (FBS) 1% penicillin/Streptomycin and incubated 24 h before treatment. Experiment was performed as described in Cano-Franco et al.. […] Cell confluence is represented as % of area covered by cells. Each data point represents the average ratio or confluence obtained from three individual wells of the plate.

With O=C1Nc2ccc(Br)cc2C1=Cc1cc(O)c(O)c(Br)c1 [compound 1] as the compound, how does the U2OS cell growth (5 uM, time 8 h) read?
The U2OS cell growth was 47.9122 and 46.3183 and 49.7721.

What about the U2OS cell growth (5 uM, time 22 h) of the same compound?
The U2OS cell growth was 63.5733 and 64.4251 and 76.2369.

What about the U2OS cell growth (5 uM, time 24 h) of the same compound?
Its U2OS cell growth is 62.8422 and 66.3932 and 68.9175.

And the U2OS cell growth (5 uM, time 26 h)?
Its U2OS cell growth is 66.7035 and 68.7534 and 74.9824.

What about the U2OS cell growth (5 uM, time 28 h) of the same compound?
The U2OS cell growth was 70.4883 and 71.9434 and 77.311.

And the U2OS cell growth (5 uM, time 30 h)?
The U2OS cell growth was 71.2918 and 69.1139 and 78.7744.

And the U2OS cell growth (5 uM, time 32 h)?
The U2OS cell growth was 71.8875 and 70.974 and 76.8121.

What about the U2OS cell growth (5 uM, time 34 h) of the same compound?
The U2OS cell growth was 70.5186 and 74.1959 and 71.985.

What about the U2OS cell growth (5 uM, time 36 h) of the same compound?
The U2OS cell growth was 76.9133 and 76.941 and 80.0108.

And the U2OS cell growth (5 uM, time 38 h)?
Its U2OS cell growth is 71.6701 and 75.2403 and 82.922.

And the U2OS cell growth (5 uM, time 40 h)?
The U2OS cell growth was 80.0499 and 78.8143 and 87.8843.

What about the U2OS cell growth (5 uM, time 42 h) of the same compound?
The U2OS cell growth was 79.1864 and 81.7569 and 82.7144.

What about the U2OS cell growth (5 uM, time 44 h) of the same compound?
The U2OS cell growth was 80.8255 and 83.4273 and 81.7035.

What about the U2OS cell growth (5 uM, time 46 h) of the same compound?
The U2OS cell growth was 70.5884 and 79.7647 and 67.8016.

And the U2OS cell growth (5 uM, time 48 h)?
The U2OS cell growth was 81.2852 and 82.2351 and 90.0725.

And the U2OS cell growth (5 uM, time 50 h)?
Its U2OS cell growth is 78.485 and 80.9296 and 75.3419.

And the U2OS cell growth (5 uM, time 52 h)?
Its U2OS cell growth is 84.8538 and 85.861 and 92.0148.

What about the U2OS cell growth (5 uM, time 54 h) of the same compound?
The U2OS cell growth was 81.5977 and 83.7885 and 83.5295.

What about the U2OS cell growth (5 uM, time 56 h) of the same compound?
The U2OS cell growth was 87.5569 and 89.4587 and 93.5821.

And the U2OS cell growth (5 uM, time 58 h)?
The U2OS cell growth was 84.6921 and 91.3967 and 84.5216.

What about the U2OS cell growth (5 uM, time 60 h) of the same compound?
The U2OS cell growth was 93.4537 and 91.9419 and 95.9095.

And the U2OS cell growth (5 uM, time 62 h)?
The U2OS cell growth was 91.9546 and 93.7695 and 96.3044.

And the U2OS cell growth (5 uM, time 64 h)?
Its U2OS cell growth is 91.8004 and 92.6286 and 91.7135.

What about the U2OS cell growth (5 uM, time 66 h) of the same compound?
The U2OS cell growth was 92.0972 and 95.8969 and 95.5896.

What about the U2OS cell growth (5 uM, time 68 h) of the same compound?
Its U2OS cell growth is 93.9858 and 97.1161 and 95.9589.

And the U2OS cell growth (5 uM, time 70 h)?
Its U2OS cell growth is 94.5074 and 95.1304 and 89.6492.

And the U2OS cell growth (5 uM, time 72 h)?
The U2OS cell growth was 96.933 and 98.1694 and 98.6119.

What about the U2OS cell growth (10 uM, 20 h) of the same compound?
The U2OS cell growth was 59.3292 and 42.3026 and 51.6083.

And the U2OS cell growth (10 uM, 22 h)?
The U2OS cell growth was 60.1123 and 47.7603 and 56.6268.

And the U2OS cell growth (10 uM, 24 h)?
The U2OS cell growth was 65.879 and 48.3199 and 58.8022.

What about the U2OS cell growth (10 uM, 26 h) of the same compound?
Its U2OS cell growth is 66.9171 and 49.8648 and 61.2924.

What about the U2OS cell growth (10 uM, 28 h) of the same compound?
Its U2OS cell growth is 68.6485 and 53.275 and 63.5375.

What about the U2OS cell growth (10 uM, 30 h) of the same compound?
Its U2OS cell growth is 71.069 and 56.4855 and 69.12.

What about the U2OS cell growth (10 uM, 32 h) of the same compound?
Its U2OS cell growth is 71.5144 and 55.8267 and 69.4636.

What about the U2OS cell growth (10 uM, 34 h) of the same compound?
The U2OS cell growth was 74.2435 and 59.7983 and 70.8226.

What about the U2OS cell growth (10 uM, 36 h) of the same compound?
The U2OS cell growth was 76.7284 and 65.4981 and 74.0155.

What about the U2OS cell growth (10 uM, 38 h) of the same compound?
The U2OS cell growth was 78.9594 and 60.103 and 73.5391.

What about the U2OS cell growth (10 uM, 40 h) of the same compound?
The U2OS cell growth was 82.7465 and 69.6911 and 78.5318.

And the U2OS cell growth (10 uM, 42 h)?
Its U2OS cell growth is 86.0039 and 72.043 and 81.778.

What about the U2OS cell growth (10 uM, 44 h) of the same compound?
Its U2OS cell growth is 87.3728 and 75.5396 and 82.7497.

And the U2OS cell growth (10 uM, 46 h)?
Its U2OS cell growth is 86.443 and 77.4006 and 83.4639.

What about the U2OS cell growth (10 uM, 48 h) of the same compound?
The U2OS cell growth was 90.3014 and 79.9185 and 88.0979.

What about the U2OS cell growth (10 uM, 52 h) of the same compound?
The U2OS cell growth was 93.1893 and 84.6225 and 90.2444.

And the U2OS cell growth (10 uM, 54 h)?
Its U2OS cell growth is 92.2143 and 85.5777 and 91.609.

And the U2OS cell growth (10 uM, 56 h)?
Its U2OS cell growth is 94.8388 and 87.9431 and 92.9209.

And the U2OS cell growth (10 uM, 58 h)?
Its U2OS cell growth is 95.7648 and 90.7362 and 94.7322.

What about the U2OS cell growth (10 uM, 60 h) of the same compound?
The U2OS cell growth was 96.7307 and 93.0491 and 95.2722.

What about the U2OS cell growth (10 uM, 62 h) of the same compound?
Its U2OS cell growth is 97.3685 and 94.6473 and 95.8269.

And the U2OS cell growth (10 uM, 66 h)?
Its U2OS cell growth is 98.0655 and 94.8695 and 97.1788.

What about the U2OS cell growth (10 uM, 68 h) of the same compound?
The U2OS cell growth was 98.3568 and 97.4017 and 97.5749.

And the U2OS cell growth (10 uM, 72 h)?
The U2OS cell growth was 99.1011 and 98.8136 and 98.7281.

And the U2OS cell growth (10 uM, time 0 h)?
The U2OS cell growth was 41.6287 and 31.6065 and 36.3749.

And the U2OS cell growth (10 uM, time 2 h)?
Its U2OS cell growth is 46.8268 and 34.9985 and 36.9548.

And the U2OS cell growth (10 uM, time 4 h)?
Its U2OS cell growth is 50.1057 and 41.3404 and 45.893.

And the U2OS cell growth (10 uM, time 6 h)?
Its U2OS cell growth is 53.6764 and 39.5271 and 46.3722.

What about the U2OS cell growth (10 uM, time 8 h) of the same compound?
The U2OS cell growth was 53.6202 and 40.325 and 41.2301.

What about the U2OS cell growth (10 uM, time 22 h) of the same compound?
The U2OS cell growth was 67.6831 and 51.6047 and 55.6044.

And the U2OS cell growth (10 uM, time 24 h)?
Its U2OS cell growth is 70.4619 and 52.7077 and 58.0097.

And the U2OS cell growth (10 uM, time 26 h)?
Its U2OS cell growth is 68.9698 and 56.3356 and 56.962.

And the U2OS cell growth (10 uM, time 28 h)?
Its U2OS cell growth is 67.5951 and 53.4169 and 58.8894.

What about the U2OS cell growth (10 uM, time 30 h) of the same compound?
Its U2OS cell growth is 68.8602 and 55.6654 and 63.1455.

And the U2OS cell growth (10 uM, time 32 h)?
Its U2OS cell growth is 68.8837 and 55.7024 and 62.8421.

And the U2OS cell growth (10 uM, time 34 h)?
Its U2OS cell growth is 67.7441 and 53.6583 and 63.4925.

What about the U2OS cell growth (10 uM, time 36 h) of the same compound?
The U2OS cell growth was 73.34 and 59.5441 and 62.7355.

And the U2OS cell growth (10 uM, time 38 h)?
The U2OS cell growth was 67.7442 and 57.3625 and 57.6257.

And the U2OS cell growth (10 uM, time 40 h)?
The U2OS cell growth was 71.5354 and 61.3788 and 67.5692.

What about the U2OS cell growth (10 uM, time 42 h) of the same compound?
Its U2OS cell growth is 73.8761 and 59.0743 and 61.5168.

What about the U2OS cell growth (10 uM, time 44 h) of the same compound?
Its U2OS cell growth is 74.214 and 60.0999 and 63.4425.

What about the U2OS cell growth (10 uM, time 46 h) of the same compound?
Its U2OS cell growth is 72.8535 and 55.2649 and 60.8845.

And the U2OS cell growth (10 uM, time 48 h)?
Its U2OS cell growth is 73.5449 and 63.3501 and 68.9579.

And the U2OS cell growth (10 uM, time 50 h)?
Its U2OS cell growth is 70.9743 and 62.8458 and 61.2746.

What about the U2OS cell growth (10 uM, time 52 h) of the same compound?
The U2OS cell growth was 74.6417 and 60.6048 and 69.8391.

And the U2OS cell growth (10 uM, time 54 h)?
The U2OS cell growth was 75.3774 and 62.4224 and 65.6988.

What about the U2OS cell growth (10 uM, time 56 h) of the same compound?
Its U2OS cell growth is 77.5732 and 64.488 and 68.1134.

What about the U2OS cell growth (10 uM, time 58 h) of the same compound?
Its U2OS cell growth is 78.9517 and 67.1316 and 73.5595.

And the U2OS cell growth (10 uM, time 60 h)?
Its U2OS cell growth is 76.9315 and 70.8366 and 74.5577.

And the U2OS cell growth (10 uM, time 62 h)?
Its U2OS cell growth is 79.5315 and 69.0042 and 76.0813.

What about the U2OS cell growth (10 uM, time 64 h) of the same compound?
Its U2OS cell growth is 76.7502 and 71.3273 and 68.7113.

What about the U2OS cell growth (10 uM, time 66 h) of the same compound?
Its U2OS cell growth is 78.3996 and 67.3832 and 73.6796.

What about the U2OS cell growth (10 uM, time 68 h) of the same compound?
Its U2OS cell growth is 79.7849 and 73.5698 and 73.1338.

What about the U2OS cell growth (10 uM, time 70 h) of the same compound?
Its U2OS cell growth is 82.866 and 75.877 and 67.6073.

What about the U2OS cell growth (10 uM, time 72 h) of the same compound?
The U2OS cell growth was 84.159 and 79.6503 and 78.942.

From PMC11589570, “Critical assessment of LC3/GABARAP ligands used for degrader development and ligandability of LC3/GABARAP binding pockets” (Nature Communications, 2024)
